Where two headings read alike, the source gives them in different places. These are yes or no findings as the source states them, for the method shown. Binding calls can cover weak binding; strength is not graded here. For part of these data: Binding seen in cells or lysates may run through a third protein. For part of these data: Tags and fused reporters may be left off the sequences shown.
Assays:
[1] = biological target: T1, SRK2E fused to nEYFP (BiFC) (Arabidopsis thaliana) (UniProt Q940H6); assay: split reporter
T1 sequence: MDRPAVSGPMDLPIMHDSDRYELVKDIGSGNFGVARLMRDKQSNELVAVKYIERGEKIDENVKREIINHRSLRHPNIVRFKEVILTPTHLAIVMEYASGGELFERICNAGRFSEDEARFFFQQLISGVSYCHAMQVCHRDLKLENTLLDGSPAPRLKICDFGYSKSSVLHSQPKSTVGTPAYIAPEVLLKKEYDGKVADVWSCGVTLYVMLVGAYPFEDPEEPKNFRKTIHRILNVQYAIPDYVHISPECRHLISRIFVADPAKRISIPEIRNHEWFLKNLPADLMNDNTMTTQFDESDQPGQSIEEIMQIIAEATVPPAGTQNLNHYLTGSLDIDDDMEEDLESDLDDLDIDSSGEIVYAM

The chains behind the UniProt entries cited, without tags or fusion partners. Where a name states a change or a piece, a line headed by the entry shows the natural chain unless it says otherwise.
UniProt Q9ZQ31: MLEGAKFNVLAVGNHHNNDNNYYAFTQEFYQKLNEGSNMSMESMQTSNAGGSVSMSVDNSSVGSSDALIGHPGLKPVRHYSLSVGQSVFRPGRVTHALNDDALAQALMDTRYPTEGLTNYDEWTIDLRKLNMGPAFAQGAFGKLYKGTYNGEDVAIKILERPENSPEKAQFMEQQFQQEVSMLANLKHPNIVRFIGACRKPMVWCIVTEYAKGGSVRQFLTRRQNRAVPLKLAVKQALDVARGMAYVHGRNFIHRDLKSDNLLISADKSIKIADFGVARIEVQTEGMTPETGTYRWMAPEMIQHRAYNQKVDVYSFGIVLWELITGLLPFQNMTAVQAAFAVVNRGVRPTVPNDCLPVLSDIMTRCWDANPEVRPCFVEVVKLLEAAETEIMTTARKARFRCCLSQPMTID
UniProt Q9FIL6: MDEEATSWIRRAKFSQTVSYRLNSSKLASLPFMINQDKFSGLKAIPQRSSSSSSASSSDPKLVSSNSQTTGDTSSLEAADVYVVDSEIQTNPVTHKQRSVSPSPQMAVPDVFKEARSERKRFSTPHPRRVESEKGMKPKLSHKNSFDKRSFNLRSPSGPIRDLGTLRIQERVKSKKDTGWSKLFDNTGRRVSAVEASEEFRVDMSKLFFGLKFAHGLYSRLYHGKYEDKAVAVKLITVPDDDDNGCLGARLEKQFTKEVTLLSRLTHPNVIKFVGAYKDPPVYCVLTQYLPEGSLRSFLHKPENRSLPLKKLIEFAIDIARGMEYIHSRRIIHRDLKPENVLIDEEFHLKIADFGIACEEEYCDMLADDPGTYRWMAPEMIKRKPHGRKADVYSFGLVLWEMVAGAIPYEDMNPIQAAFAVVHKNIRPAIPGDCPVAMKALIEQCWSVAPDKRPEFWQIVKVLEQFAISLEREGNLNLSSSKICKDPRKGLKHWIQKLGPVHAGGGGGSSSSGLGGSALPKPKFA

[2] = biological target: T2, SRK2D fused to nEYFP (BiFC) (Arabidopsis thaliana) (UniProt Q39192); assay: split reporter
T2 sequence: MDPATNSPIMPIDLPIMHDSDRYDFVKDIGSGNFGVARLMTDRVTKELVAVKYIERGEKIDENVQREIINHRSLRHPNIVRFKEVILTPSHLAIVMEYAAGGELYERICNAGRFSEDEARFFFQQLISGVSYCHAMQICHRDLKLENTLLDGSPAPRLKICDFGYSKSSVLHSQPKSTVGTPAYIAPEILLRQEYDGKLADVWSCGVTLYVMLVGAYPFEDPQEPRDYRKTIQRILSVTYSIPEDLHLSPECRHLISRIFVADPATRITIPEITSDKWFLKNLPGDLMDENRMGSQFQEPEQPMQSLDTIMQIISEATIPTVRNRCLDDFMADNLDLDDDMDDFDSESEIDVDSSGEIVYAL

[3] = biological target: T3, SRK2I fused to nEYFP (BiFC) (Arabidopsis thaliana) (UniProt Q39193); assay: split reporter
T3 sequence: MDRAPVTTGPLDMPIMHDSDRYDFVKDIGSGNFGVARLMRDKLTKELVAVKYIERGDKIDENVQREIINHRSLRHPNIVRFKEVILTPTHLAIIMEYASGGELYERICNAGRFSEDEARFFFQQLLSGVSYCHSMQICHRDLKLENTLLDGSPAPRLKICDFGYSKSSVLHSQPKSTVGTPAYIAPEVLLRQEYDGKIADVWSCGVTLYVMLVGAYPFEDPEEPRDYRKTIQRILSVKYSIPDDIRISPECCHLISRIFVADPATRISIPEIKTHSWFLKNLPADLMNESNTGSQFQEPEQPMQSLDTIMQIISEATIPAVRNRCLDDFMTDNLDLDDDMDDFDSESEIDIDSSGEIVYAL

[4] = biological target: T4, GAL4BD:SRK2E (yeast two-hybrid) (Arabidopsis thaliana) (UniProt Q940H6); assay: two-hybrid
T4 sequence: T1 sequence

[5] = biological target: T4, GAL4BD:SRK2E (yeast two-hybrid) (Arabidopsis thaliana); assay: two-hybrid; remark: listed apart in the source
[6] = biological target: T5, GAL4BD:SRK2I (yeast two-hybrid) (Arabidopsis thaliana) (UniProt Q39193); assay: two-hybrid
T5 sequence: T3 sequence

[7] = biological target: T6, GAL4BD:SRK2D (yeast two-hybrid) (Arabidopsis thaliana) (UniProt Q39192); assay: two-hybrid
T6 sequence: T2 sequence

[8] = biological target: T7, SRK2I, N-terminal biotinylated (AlphaScreen) (Arabidopsis thaliana) (UniProt Q39193); assay: AlphaScreen or HTRF
T7 sequence (chain, N-terminal biotinylated): T3 sequence

[9] = biological target: T8, SRK2D, N-terminal biotinylated (AlphaScreen) (Arabidopsis thaliana) (UniProt Q39192); assay: AlphaScreen or HTRF
T8 sequence (chain, N-terminal biotinylated): T2 sequence

[10] = biological target: T9, SRK2E, N-terminal biotinylated (AlphaScreen) (Arabidopsis thaliana) (UniProt Q940H6); assay: AlphaScreen or HTRF
T9 sequence (chain, N-terminal biotinylated): T1 sequence

| binding [4] | binding [5] | Substance | binding [1] | binding [2] | binding [3] | further results |
| --- | --- | --- | --- | --- | --- | --- |
| – | – | Raf22 fused to cEYFP (BiFC) (from UniProt Q9ZQ31) (enzyme) | binds | binds | binds | – |
| binds weakly | – | GAL4AD:Raf36 N (amino acid residues 1-206) (yeast two-hybrid) (Arabidopsis thaliana) (domain or fragment) | – | – | – | – |
| binds | binds | GAL4AD:Raf36 full-length protein (yeast two-hybrid) (Arabidopsis thaliana) (enzyme) | – | – | – | binding [6]: binds; binding [7]: binds |
| – | – | Raf36, C-terminal FLAG-tagged (AlphaScreen) (from UniProt Q9FIL6) (enzyme) | – | – | – | binding [8]: binds; binding [9]: binds; binding [10]: binds |
| – | no binding | GAL4AD:Raf36 KD+C (207-525) (yeast two-hybrid) (Arabidopsis thaliana) (domain or fragment) | – | – | – | – |
| – | – | Raf36 fused to cEYFP (BiFC) (Arabidopsis thaliana) (enzyme) | binds | binds | binds | – |
